# This is one part of the list. These are raw signals, not scaled to a control.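 In the initial screen, polymyxin B was used at a concentration that permeabilizes Salmonella's outer membrane but not its inner membrane. Maximum growth was set by DMSO wells with or without polymyxin B. Since plates varied, data were ranked per plate, and compounds giving the lowest OD600 advanced as hits.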
# Tested on: Salmonella enterica serovar Typhimurium SL1344
# Assay: bacterial growth OD600 after 18 h with compound and polymyxin B; higher = more bacterial growth (less inhibition)
# Settings: 50 µM, Mueller-Hinton broth
Structure (SMILES),bacterial growth OD600 (polymyxin B 1 µg/mL),bacterial growth OD600 (polymyxin B 0.75 µg/mL)
C[C@@H]1CN(C2CCN(c3nc4nonc4nc3NC3CCCC3)CC2)C[C@H](C)O1,1.07,–
CC(C)c1ccc(NC2CCCN(C(=O)c3cccc4nccnc34)C2)cc1 (stereo not given),1.07,–
COCCN1CCCC(CNc2nc3nonc3nc2NC2CC2)C1 (stereo not given),–,0.834
COCCC(=O)N1CCC(C(=O)Nc2cccc(-c3cc4ccccc4[nH]3)c2)CC1,0.815,–
O=C(Nc1ccnn1C1CCN(C(=O)c2ccsc2)CC1)c1ccc2c(c1)OCO2,0.98,–
O=C(CCN1CCCO1)N1CCc2[nH]nc(-c3ccc(Cl)cc3)c2C1,–,0.899
CN(C)S(=O)(=O)NCc1cccnc1Oc1ccc(F)c(F)c1,0.849,–
COc1ccc(C(=O)C2CCCN(Cc3cnc(SC)nc3)C2)c(OC)c1 (stereo not given),0.848,–
CC(C)N1CCC(N2CCCC(C(=O)NCc3cn4ccsc4n3)C2)CC1 (stereo not given),–,1
CCOC(=O)C1CCN(Cc2nc(Cc3ccccc3Cl)no2)CC1,0.925,–
CCC1CN(c2ccc(C(=O)NCCCc3ccccn3)cn2)CCN1C (stereo not given),0.81,–
Cc1ccn(CC(=O)N2CCCC(C(=O)c3ccc(-c4ccccc4)cc3)C2)n1 (stereo not given),0.002,–
CN(C)CC(=O)NCc1cccnc1Oc1cccc(C(F)(F)F)c1,–,0.868
COCCN(Cc1cn(-c2ccccc2)nc1-c1cccc(OC)c1)C(C)C,0.964,–
CN(CCc1ccccc1)C(=O)c1cc(Cn2cnc3ccccc32)[nH]n1,0.843,–
O=C(CCN1Cc2ccccc2OC(c2ccccc2)C1)N1CCC(Oc2cccnc2)CC1 (stereo not given),–,0.006
COc1ccccc1CNC(=O)c1c(OC)cc(=O)n2c1CCN(Cc1ccccc1Cl)CC2,–,0.82
CCC(COC)NCc1cn(-c2ccc(OC)cc2)nc1-c1cccc(F)c1 (stereo not given),0.739,–
COc1cccc(CC(C2CCN(C(=O)c3ccc(C)c(C)c3)CC2)N(C)C(=O)CC(C)C)c1 (stereo not given),–,0.002
O=C(Cc1ccccc1Cl)N1CCC(C2(c3ccccn3)NC(=O)N(CC3CCCO3)C2=O)CC1 (stereo not given),–,0.867

# Record cards, from the list above.
# CC(C)N1CCC(N2CCCC(C(=O)NCc3cn4ccsc4n3)C2)CC1 (stereo not given) reads bacterial growth OD600 (polymyxin B 0.75 µg/mL): 1
# O=C(CCN1CCCO1)N1CCc2[nH]nc(-c3ccc(Cl)cc3)c2C1 reads bacterial growth OD600 (polymyxin B 0.75 µg/mL): 0.899
